Laboratory results: PubChem BioAssay AID504808 (Drosophila RNAi Screening Center, 2011)
In all, the deposit lists about 21,000 reagents; shown is an unselected part of those with a known target gene and a result. Over the whole deposit, 18 (0.084%) were called active. 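Raw counts without plate normalisation, one of two replicates; the ratio scores behind the calls were not deposited.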 Names joined by + are all predicted targets of the reagent. Not stated in the record: the amount of reagent, the time to read-out.

Assay: 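Chromatin factors that keep E2F targets switched off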 (primary screen)
Cells: Drosophila S2 cells
Reagent: long dsRNA against Drosophila genes
Measurement: 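Firefly luciferase driven by E2F sites, normalised to Renilla luciferase on the same minimal promoter, measured by plate reader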
Reading the numbers: E2F firefly: higher = more E2F reporter activity; Renilla normaliser: higher = more normaliser reporter signal
Rule for the call: 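Called active if the normalised E2F reporter went up by over 50%; the cutoff is arbitrary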

| target | dsRNA | E2F firefly, rep 1 | Renilla normaliser, rep 1 | activity call |
| --- | --- | --- | --- | --- |
| CG7997 | DRSC07052 | 72787 | 3002 | inactive |
| Rcc1 (Regulator of chromosome condensation 1) | DRSC09684 | 73475 | 3452 | inactive |
| Gdap1 | DRSC10437 | 93101 | 3840 | inactive |
| TwdlD (TweedleD) | DRSC14738 | 1.16e5 | 5658 | inactive |
| CG6290 | DRSC19979 | 1.52e5 | 5176 | inactive |
| D2hgdh (D-2-hydroxyglutaric acid dehydrogenase) | DRSC18577 | 1811 | 812 | inactive |
| CG1299 | DRSC08300 | 99833 | 4082 | inactive |
| CG42322 | DRSC15112 | 58435 | 3019 | inactive |
| CG42322 | DRSC15113 | 1.27e5 | 7523 | inactive |
| CG42322 | DRSC15114 | 1.53e5 | 6842 | inactive |
| CG8405 | DRSC05599 | 1.34e5 | 6296 | inactive |
| CG8405 | DRSC07166 | 1.49e5 | 5345 | inactive |
| CG11504 | DRSC14318 | 1887 | 848 | inactive |
| Amy-d (Amylase distal) | DRSC05919 | 1.31e5 | 5548 | inactive |
| hale (hale-bopp) | DRSC10882 | 1.41e5 | 6284 | inactive |
| Galphai (G protein alpha subunit i) | DRSC11168 | 62865 | 3304 | inactive |
| CG33158 | DRSC09708 | 51439 | 2946 | inactive |
| CG33158 | DRSC09709 | 1.61e5 | 8938 | inactive |
| CG33158 | DRSC10438 | 1.75e5 | 8046 | inactive |
| Ir7a (Ionotropic receptor 7a) | DRSC17866 | 35692 | 2876 | inactive |
| Lcp65Af | DRSC11213 | 1.03e5 | 3863 | inactive |
| RPA1 (Replication protein A1) | DRSC16830 | 63553 | 3509 | inactive |
| Parg (Poly(ADP-ribose) glycohydrolase) | DRSC18696 | 1899 | 1064 | inactive |
| mh (maternal haploid) | DRSC20168 | 1.22e5 | 6178 | inactive |
| CG18284 | DRSC02661 | 91145 | 3825 | inactive |
| CG18284 | DRSC20756 | 86626 | 3287 | inactive |
| Pitslre | DRSC11874 | 73737 | 4042 | inactive |
| CG33642 | DRSC01325 | 1.35e5 | 6041 | inactive |
| Snx16 (Sorting nexin 16) | DRSC06984 | 1.52e5 | 5439 | inactive |
| CG8654 | DRSC07231 | 63234 | 3501 | inactive |
| CG4968 | DRSC02794 | 76992 | 3472 | inactive |
| Grx1 (Glutaredoxin 1) | DRSC10727 | 1.40e5 | 7680 | inactive |
| Gr22e (Gustatory receptor 22e) | DRSC20912 | 79771 | 2275 | inactive |
| Idh3b (Isocitrate dehydrogenase 3b) | DRSC16040 | 81168 | 3237 | inactive |
| CR32745 (pseudo) | DRSC17442 | 71360 | 2688 | inactive |
| dap (dacapo) | DRSC07601 | 2129 | 222 | inactive |
| CG14416 | DRSC18639 | 1.52e5 | 7561 | inactive |
| Hex-A (Hexokinase A) | DRSC18259 | 1.26e5 | 5879 | inactive |
| Nopp140 | DRSC11872 | 1.38e5 | 6854 | inactive |
| Sqor (Sulfide quinone oxidoreductase) | DRSC08453 | 83280 | 3537 | inactive |
| CG42375 + CG9288 | DRSC16468 | 77614 | 3225 | inactive |
| CG9411 | DRSC20184 | 8838 | 680 | inactive |
| Dyrk3 (Dual-specificity tyrosine phosphorylation-regulated kinase 3) | DRSC21055 | 71720 | 4530 | inactive |
| Caf1-180 (Chromatin assembly factor 1, p180 subunit) | DRSC17807 | 7564 | 756 | inactive |
| Coq3 (Coenzyme Q3) | DRSC03168 | 78226 | 3467 | inactive |
| CG13380 + CG4174 | DRSC09988 | 63993 | 3774 | inactive |
| CG13380 + CG4174 | DRSC10406 | 1.63e5 | 7435 | inactive |
| MFS10 (Major Facilitator Superfamily Transporter 10) | DRSC19888 | 8049 | 716 | inactive |
| CG2120 | DRSC18207 | 1.19e5 | 6318 | inactive |
| CG15337 | DRSC18020 | 1.16e5 | 5225 | inactive |
| snRNA:U1:95Cc (small nuclear RNA U1 at 95C c) | DRSC13640 | 88814 | 2712 | inactive |
| tara (taranis) | DRSC17076 | 1.10e5 | 5396 | inactive |
| CG13251 | DRSC11699 | 1.14e5 | 5863 | inactive |
| CG13177 | DRSC06303 | 97453 | 3873 | inactive |
| ast (asteroid) | DRSC00803 | 84530 | 3584 | inactive |
| tef (teflon) | DRSC07301 | 75149 | 3992 | inactive |
| su(f) (suppressor of forked) | DRSC20907 | 1.35e5 | 6543 | inactive |
| CG14315 | DRSC14794 | 1.62e5 | 8112 | inactive |
| Diap1 (Death-associated inhibitor of apoptosis 1) | DRSC11404 | 31008 | 2523 | inactive |
| ND-B14.5A (NADH dehydrogenase (ubiquinone) B14.5 A subunit) | DRSC18500 | 1.21e5 | 5774 | inactive |
| CG17549 | DRSC02625 | 78482 | 3945 | inactive |
| modSP (modular serine protease) | DRSC16726 | 1.22e5 | 6911 | inactive |
| modSP (modular serine protease) | DRSC16857 | 1.16e5 | 5651 | inactive |
| Erk7 (Extracellularly regulated kinase 7) | DRSC18127 | 1.25e5 | 5574 | inactive |
| Erk7 (Extracellularly regulated kinase 7) | DRSC18227 | 1.22e5 | 5581 | inactive |
| Tk (Tachykinin) | DRSC14954 | 1.32e5 | 6070 | inactive |
| CG15376 (retired record) | DRSC18046 | 1.24e5 | 5195 | inactive |
| Roe1 | DRSC07534 | 3143 | 187 | inactive |
| CG42394 + CG6567 | DRSC12821 | 68667 | 3989 | inactive |
| CG14397 | DRSC02381 | 1.09e5 | 4435 | inactive |
| CG15344 (retired record) | DRSC18029 | 1.08e5 | 5355 | inactive |
| CG5455 | DRSC15805 | 1922 | 940 | inactive |
| CG15731 | DRSC19698 | 47133 | 3224 | inactive |
| CG15740 | DRSC19706 | 40414 | 3300 | inactive |
| Spn43Ab (Serpin 43Ab) | DRSC06781 | 1.37e5 | 4724 | inactive |
| CG16985 | DRSC08501 | 1.11e5 | 4713 | inactive |
| mew (multiple edematous wings) | DRSC18971 | 73598 | 3224 | inactive |
| mew (multiple edematous wings) | DRSC20352 | 1.32e5 | 5928 | inactive |
| gdl-ORF39 + gdl | DRSC11350 | 1.64e5 | 8178 | inactive |
| Alg-2 (Apoptosis-linked gene-2) | DRSC07799 | 94166 | 4830 | inactive |
| su(w[a]) (suppressor of white-apricot) | DRSC18840 | 1896 | 892 | inactive |
| mRpS34 (mitochondrial ribosomal protein S34) | DRSC09918 | 1.84e5 | 7932 | inactive |
| CG2921 | DRSC04324 | 90769 | 3935 | inactive |
| GstD2 (Glutathione S transferase D2) | DRSC16684 | 1.42e5 | 7127 | inactive |
